Results: patent US8404677B2, “Kinase inhibitors” (Genosco, priority 2009, dated 2013)

Tested on: MV4-11 cells expressing human FLT3-ITD
Experiment: Cell viability assay: FLT3-ITD-positive cells
Format: cell-based
Settings: 72-hour incubation, read-out: MV-4-11 cell viability IC50
Protocol: Compounds of the invention were tested for cell viability effect on MV4-11 cells. For cell viability assay, MV4-11 cells expressing human FLT3-ITD were obtained from the American Type Culture Collection (ATCC, Manassas, Va.). This cell line was maintained with an Roswell Park Memorial Institute (RPMI) medium (HyClone™) containing 10 bovine calf serum (BCS; Hyclone™) supplemented iron. […] CellTiter Aqueous assay (Promega™) was also performed in parallel as an orthogonal assay. IC50 values were calculated using nonlinear regression and defined as the concentration needed for a 50 reduction in luminescence or absorbance treated versus untreated control cells (Prism™ Software).

How did the IC50 turn out when `CO[C@@H]1[C@H](N(C)C(=O)c2ccccc2)C[C@H]2O[C@]1(C)n1c3ccccc3c3c4c(c5c6ccccc6n2c5c31)C(=O)NC4` [PKC-412, reference compound] was run?
Its IC50 is 11.7 nM.
